PubChem BioAssay AID1259297 – Sanger Institute – 2017

- Test: 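Kinases whose loss kills cells on their own or with targeted drugs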 (primary screen)
- System: human RCM1 colorectal cancer cell line
- Reagents: siRNA pool against human genes
- Challenge: separate arms: DMSO vehicle, or one anchor drug at a mild dose: BYL719 1 µM, cetuximab 5 µg/ml, trametinib 10 nM
- Measurement: 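Viability per well relative to a non-targeting pool, mean of replicates; robust z-score for knock-down alone; synergy score with BYL719, cetuximab or trametinib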
- Direction: viability z-score, knock-down alone: higher = more viable cells than non-targeting controls
- Hit rule: 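Called essential if knock-down without drug gives a viability robust z-score under -3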
- Calls: active = essential when knocked down alone; inactive = no clear loss of viability alone
The deposit covers 794 reagents; below is a part drawn at random. 13 of all reagents (1.6%) were called active. 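Calls reflect knock-down without drug only; drug synergy is judged separately, with scores above 0.15 counted as synergy.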 A number with no mark means an inactive call. Further read-outs or replicates are left out here. Reagent sequences are not shown. Not stated in the record: the amount of reagent, the time to read-out.

The first 3 entries as a preview:
CSNK2B (GeneID 1460): viability z-score, knock-down alone = -1.54
CTCF (GeneID 10664): viability z-score, knock-down alone = -0.264
AK2 (GeneID 204): viability z-score, knock-down alone = 0.9

Results, repeating the preview:
CSNK2B (GeneID 1460): viability z-score, knock-down alone = -1.54
CTCF (GeneID 10664): viability z-score, knock-down alone = -0.264
AK2 (GeneID 204): viability z-score, knock-down alone = 0.9
MAPK11 (GeneID 5600): viability z-score, knock-down alone = 0.803
TNNI3K (GeneID 51086): viability z-score, knock-down alone = -0.241
CIB2 (GeneID 10518): viability z-score, knock-down alone = 0.248
GUCY2EP (GeneID 390226): viability z-score, knock-down alone = -0.33
EIF2AK2 (GeneID 5610): viability z-score, knock-down alone = -0.63
ATR (GeneID 545): viability z-score, knock-down alone = 0.9
PAK5 (GeneID 57144): viability z-score, knock-down alone = 0.223
DCLK1 (GeneID 9201): viability z-score, knock-down alone = 0.524
BMPR2 (GeneID 659): viability z-score, knock-down alone = -0.0744
ITPKB (GeneID 3707): viability z-score, knock-down alone = 0.862
SMC1A (GeneID 8243): viability z-score, knock-down alone = -1.82
PRKG2 (GeneID 5593): viability z-score, knock-down alone = 0.9
RTN4 (GeneID 57142): viability z-score, knock-down alone = -0.364
SOX9 (GeneID 6662): viability z-score, knock-down alone = -0.129
SIK1 (GeneID 150094): viability z-score, knock-down alone = -0.124
CDK5R1 (GeneID 8851): viability z-score, knock-down alone = 0.171
CHKB (GeneID 1120): viability z-score, knock-down alone = -0.415
FXR1 (GeneID 8087): viability z-score, knock-down alone = 0.504
CDK14 (GeneID 5218): viability z-score, knock-down alone = -0.716
PNCK (GeneID 139728): viability z-score, knock-down alone = 0.00772
MAP3K13 (GeneID 9175): viability z-score, knock-down alone = 0.194
STK32C (GeneID 282974): viability z-score, knock-down alone = 0.9
CAMK1D (GeneID 57118): viability z-score, knock-down alone = 0.9
ALK (GeneID 238): viability z-score, knock-down alone = -2.28
PACSIN1 (GeneID 29993): viability z-score, knock-down alone = 0.405
SOS2 (GeneID 6655): viability z-score, knock-down alone = 0.9
CDK8 (GeneID 1024): viability z-score, knock-down alone = 0.9
CHEK2 (GeneID 11200): viability z-score, knock-down alone = -0.108
NUCKS1 (GeneID 64710): viability z-score, knock-down alone = 0.855
WNK1 (GeneID 65125): viability z-score, knock-down alone = 0.9
CDK13 (GeneID 8621): viability z-score, knock-down alone = 0.9
ERN2 (GeneID 10595): viability z-score, knock-down alone = 0.9
SGK3 (GeneID 23678): viability z-score, knock-down alone = 0.441
